In PubChem BioAssay AID445 (National Center for Advancing Translational Sciences (NCATS), 2006):
This is one part of the list. The main result of the screen is listed elsewhere. These columns were measured beside it and carry no call. Most of these compounds were active or inconclusive in the main read-out, so they are no random draw. The note in brackets gives the kind of curve behind each potency; many fits are weak.

test: IkB Signaling; details: ABC-DLBCL IkBa-CBG/CBR dual luciferase ratio (green luciferase fused to IkBa over red control in OCI-Ly3 lymphoma cells), 4 h; measured here: control luc red channel unless noted
Procedure, shortened: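 In this assay, an IκBα–CBG68 fusion accumulates when IKK-driven degradation is blocked; native CBR normalizes for cell number. OCI-Ly3 cells were treated 4 h with compound and doxycycline, then green and red light read after Chroma-Glo addition.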

With `O=C(Nc1ccccc1Cl)[C@H](CSCc1ccccc1)N1Cc2ccccc2C1=O` as the molecule, how does the AC50 read?
The AC50 was 31.6 µM [falling, single point].

With `O=C(c1ccc2c(c1)CCN2S(=O)(=O)c1ccccc1)N1CCN(c2ccccc2F)CC1` as the molecule, how does the AC50 read?
Its AC50 is 25.1 µM [falling, single point].

Which AC50 does the source give for `COc1ccccc1NC(=O)CSc1nnc(-c2ccc(C)cc2)o1` here?
The AC50 was 3.98 µM [falling, partial curve].

For `COc1ccc(-c2ccc(NS(=O)(=O)c3cc(C)c(C)cc3C)cc2)nn1`, which AC50 is on record?
The AC50 was 20 µM [falling, partial curve].

For `CCn1nc(C)c2c(-c3ccccc3)cc(=O)n(C(C)C(=O)Nc3cc(C)ccc3C)c21` (stereo unspecified), which AC50 is on record?
The AC50 was 3.98 µM [rising, partial curve].

Which AC50 does the source give for `Clc1ccc(CCNC(c2ccc(Cl)cc2)c2nnc(-c3ccccc3)o2)cc1` (stereo unspecified) here?
Its AC50 is 0.631 µM [falling, full curve].

Which AC50 does the source give for `Cc1ccc2[nH]c(=O)c(CN(CCCN3CCOCC3)C(=O)Nc3cccc(Cl)c3)cc2c1` here?
Its AC50 is 25.1 µM [falling, partial curve].

For `CCCCOc1ccc(C(=O)Nc2cccc(C)n2)cc1`, which AC50 is on record?
Its AC50 is 12.6 µM [falling, partial curve].

Which AC50 does the source give for `CCOC(=O)c1c(S(=O)(=O)N2CCCC(C(=O)N3CCN(c4cc(C)ccc4C)CC3)C2)c(C)n(C)c1C` (stereo unspecified) here?
Its AC50 is 25.1 µM [falling, partial curve].

With `Cc1cc(C)cc(OCCSc2nc3ccc(NC(=O)COc4ccccc4)cc3s2)c1` as the molecule, how does the AC50 read?
The AC50 was 3.98 µM [falling, partial curve].

Which AC50 does the source give for `CCCc1cc(C(=O)NCCc2ccccc2)no1` here?
Its AC50 is 5.01 µM [falling, partial curve].

With `Cc1ccc(OCC(=O)Nc2nonc2-c2ccc(Br)cc2)cc1C` as the molecule, how does the AC50 read?
Its AC50 is 0.126 µM [rising, full curve].

Which AC50 does the source give for `Cc1ccccc1Cn1c(SCc2ccc(C(=O)N3CCCCC3)cc2)nc2ccncc21` here?
Its AC50 is 31.6 µM [falling, partial curve].

With `CCCOc1ccc(OC(=O)c2ccc(-c3ccc(CCC)cn3)cc2)cc1` as the molecule, how does the AC50 read?
The AC50 was 0.631 µM [falling, full curve].

With `CC1CCc2c(sc3nc(SCC(=O)NCc4ccco4)nc(N)c23)C1` (stereo unspecified) as the molecule, how does the AC50 read?
The AC50 was 7.94 µM [falling, partial curve].

For `COc1ccc(CCNC(=O)c2cc(Nc3ccccc3)nc3ccccc23)cc1OC`, which AC50 is on record?
Its AC50 is 20 µM [falling, partial curve].

With `O=C(Nc1ccc(S(=O)(=O)N(Cc2ccccc2)c2ccccc2)cc1)c1ccccc1F` as the molecule, how does the AC50 read?
The AC50 was 25.1 µM [falling, partial curve, poor fit].

Which AC50 does the source give for `CCCn1ccc2c(OCC(=O)Nc3ccccc3C(=O)OCC)cccc2c1=O` here?
The AC50 was 2.51 µM [falling, partial curve].

For `O=C(Nc1ccccc1C(=O)NCc1ccccc1)c1ccco1`, which AC50 is on record?
Its AC50 is 15.8 µM [falling, partial curve].

With `COC(=O)c1ccccc1NC(=O)CCCn1c(C)c2cnn(-c3ccccc3)c(=O)c2c1C` as the molecule, how does the AC50 read?
Its AC50 is 12.6 µM [falling, partial curve].

Which AC50 does the source give for `Oc1ccccc1-c1nc2cnccn2c1Nc1ccc(Cl)cc1` here?
Its AC50 is 10 µM [falling, partial curve].

With `COc1ccc(CNC(=O)CN2C(=O)COc3ccccc32)c(OC)c1` as the molecule, how does the AC50 read?
The AC50 was 6.31 µM [falling, partial curve].

Which AC50 does the source give for `Cc1ccc2nc(NC(=O)CSc3cc(C)[nH]c(=O)n3)sc2c1` here?
The AC50 was 25.1 µM [falling, single point].

Which AC50 does the source give for `COc1ccc(-c2nn3c(-c4ccccc4)nnc3c3ccccc23)cc1` here?
The AC50 was 39.8 µM [falling, single point].

For `Cc1ccc(C)c(-n2nnnc2SCC(=O)Nc2cccc(-c3nnc4n3CCCCC4)c2)c1`, which AC50 is on record?
The AC50 was 31.6 µM [falling, partial curve].

With `Cc1nn(Cc2ccc(Cl)c(Cl)c2)c(C)c1NC(=O)c1cc(-c2ccc3c(c2)OCO3)on1` as the molecule, how does the AC50 read?
The AC50 was 1.58 µM [falling, full curve, poor fit].

With `Cc1cccc(N2CCN(C(=O)Cn3c(C)c4cnn(-c5ccccc5)c(=O)c4c3C)CC2)c1C` as the molecule, how does the AC50 read?
Its AC50 is 39.8 µM [falling, single point].

With `Cc1ccc(N2C(=O)[C@@H]3[C@H](C2=O)C2c4ccccc4C=CN2[C@@H]3C(=O)c2ccco2)c(C)c1` (stereo partly specified) as the molecule, how does the AC50 read?
The AC50 was 3.16 µM [falling, full curve, poor fit].

For `CCOC(=O)C1CCCN(C(=O)Cn2ncc3c(C)n(Cc4ccc(Cl)cc4)c(C)c3c2=O)C1` (stereo unspecified), which AC50 is on record?
The AC50 was 15.8 µM [falling, partial curve].

With `Cc1ccc(NS(=O)(=O)c2ccc3c(c2)CCN3C(=O)C2CC2)c(C)c1` as the molecule, how does the AC50 read?
Its AC50 is 12.6 µM [falling, partial curve].

For `C=C(C)Cn1c(SCC(=O)c2ccc(Br)cc2)nc2sc3c(c2c1=O)CCCC3`, which AC50 is on record?
Its AC50 is 7.94 µM [falling, full curve, poor fit].

With `CC(=O)c1c(C(C)=O)c(C)n(NC(=O)c2cccnc2)c1C` as the molecule, how does the AC50 read?
Its AC50 is 12.6 µM [falling, partial curve].

Which AC50 does the source give for `Cc1ccc(S(=O)(=O)c2nc(-c3cccs3)oc2SCc2ccc(F)cc2)cc1` here?
Its AC50 is 5.01 µM [falling, single point].

With `CC(C)c1ccccc1NC(=O)C(Cc1c[nH]c2ccccc12)NC(=O)OC(C)(C)C` (stereo unspecified) as the molecule, how does the AC50 read?
The AC50 was 20 µM [falling, single point].

Which AC50 does the source give for `Cc1cccc(Nc2nnc(SCc3cn4ccsc4n3)s2)c1` here?
The AC50 was 39.8 µM [falling, single point].

With `CCOC(=O)c1ccc(Nc2c(-c3ccc(OC)cc3)nc3nc[nH]n23)cc1` as the molecule, how does the AC50 read?
Its AC50 is 5.01 µM [falling, partial curve].

Which AC50 does the source give for `CCOc1ccc(S(=O)(=O)Nc2ccc3c(c2)CCCN3C(=O)c2cccs2)cc1` here?
Its AC50 is 15.8 µM [falling, partial curve, poor fit].

With `O=C(Cc1ccc(NC(=O)N2CCCCc3ccccc32)cc1)NCc1cccc(Br)c1` as the molecule, how does the AC50 read?
The AC50 was 31.6 µM [falling, single point].

With `COc1ccc(C(=O)Nc2cccc(OC)c2)cc1` as the molecule, how does the AC50 read?
The AC50 was 10 µM [falling, partial curve].

For `CC1=C(c2ccc(C)c(C)c2)S(=O)(=O)N=C1N1CCC(C(=O)NCc2ccc(N(C)C)cc2)CC1`, which AC50 is on record?
Its AC50 is 1.58 µM [falling, partial curve].

Which AC50 does the source give for `COc1ccccc1NC(=O)N1CCN(c2nnc(C)c3c(C)n(-c4ccccc4)nc23)CC1` here?
The AC50 was 0.1 µM [rising, full curve].

For `Cc1noc(C)c1-c1ccc2ncnc(NCc3cccs3)c2c1`, which AC50 is on record?
The AC50 was 1 µM [rising, partial curve] [measured here: IkB-luc green channel].

Which AC50 does the source give for `O=c1c2oc3ccccc3c2n(Cc2ccccc2F)c(=O)n1Cc1ccc2c(c1)OCO2` here?
The AC50 was 1 µM [falling, partial curve].

With `CCN(CC)S(=O)(=O)c1ccc(NC(=O)c2c(C)oc3ncnc(N4CCCCC4)c23)cc1` as the molecule, how does the AC50 read?
Its AC50 is 0.0126 µM [falling, full curve, poor fit].

With `NC(=O)c1c(NC(NC(=O)c2ccco2)(C(F)(F)F)C(F)(F)F)sc2c1CCCC2` as the molecule, how does the AC50 read?
The AC50 was 15.8 µM [falling, partial curve].

For `CCCC(=O)N1c2ccccc2-c2nnc(SC)nc2OC1c1sccc1C` (stereo unspecified), which AC50 is on record?
The AC50 was 25.1 µM [falling, partial curve].

For `C[C@]12C=CC(=O)C=C1CC[C@@H]1[C@H]3C[C@@H](O)[C@](O)(C(=O)CO)[C@]3(C)C[C@H](O)[C@]12F`, which AC50 is on record?
The AC50 was 25.1 nM [rising, full curve] [measured here: IkB-luc green channel].

Which AC50 does the source give for `COc1ccc(-n2c(Cc3cccn3C)nnc2SCC(=O)Nc2cc(C)cc(C)c2)cc1` here?
Its AC50 is 15.8 µM [falling, partial curve].

With `CC(Oc1ccccc1)C(=O)Nc1c(C(=O)Nc2cccc(F)c2)oc2ccccc12` (stereo unspecified) as the molecule, how does the AC50 read?
Its AC50 is 12.6 µM [falling, partial curve].

For `Cc1ccc2oc(=O)c3cnn(CC(=O)N4CCN(c5cccc(Cl)c5)CC4)c3c2c1`, which AC50 is on record?
The AC50 was 3.16 µM [falling, single point].

Which AC50 does the source give for `Cc1cc(CN2CCN(CCC#N)CC2)c(O)c(C2(C)CCCCC2)c1` here?
The AC50 was 10 µM [falling, partial curve].

For `CCOC(=O)c1[nH]c(C)c(CCC(=O)N2CCN(c3cc(C)ccc3C)CC2)c1C`, which AC50 is on record?
The AC50 was 25.1 µM [falling, single point].

For `CCOc1ccc(OCC)c(NC(=O)CN(C)S(=O)(=O)c2ccc3[nH]c(=O)oc3c2)c1`, which AC50 is on record?
The AC50 was 20 µM [falling, partial curve].

For `Cc1ccc(NC(=O)c2nc(S(=O)(=O)Cc3ccc(F)cc3)ncc2Cl)cc1C`, which AC50 is on record?
The AC50 was 6.31 µM [falling, full curve].

Which AC50 does the source give for `Cc1cccc(C(=O)Nc2ccc3nc(SCC(=O)N4CCCC4)sc3c2)c1` here?
Its AC50 is 25.1 µM [falling, partial curve].

Which AC50 does the source give for `O=C(CSc1nc(=O)[nH]c2c1CCC2)Nc1cc(C(F)(F)F)ccc1Cl` here?
Its AC50 is 39.8 µM [falling, single point].

Which AC50 does the source give for `COc1cc(CNC(=O)c2ccc(NC(=O)N3CCCCc4ccccc43)cc2)cc(OC)c1OC` here?
Its AC50 is 10 µM [falling, partial curve].

For `CCc1ccccc1NC(=O)C1CCCN(S(=O)(=O)c2ccc3[nH]c(=O)ccc3c2)C1` (stereo unspecified), which AC50 is on record?
The AC50 was 15.8 µM [falling, single point].

For `CCOc1ccccc1C1CC(=O)Nc2cc3c(cc21)OCO3` (stereo unspecified), which AC50 is on record?
The AC50 was 39.8 µM [falling, single point].

Which AC50 does the source give for `COc1ccc(OC)c(CCNC(=O)CCCn2c(=O)c3cccn3c3cccnc32)c1` here?
Its AC50 is 3.16 µM [rising, partial curve].

For `COc1ccc(N2CCN(C(=O)CSc3nc(-c4ccccc4)no3)CC2)cc1`, which AC50 is on record?
Its AC50 is 1.58 µM [falling, full curve].
